The values that follow come from article doi:10.1101/2022.02.20.481212.

Protein sequences, listed by entry. Tags and fused reporters are not part of them.
UniProt Q3B726: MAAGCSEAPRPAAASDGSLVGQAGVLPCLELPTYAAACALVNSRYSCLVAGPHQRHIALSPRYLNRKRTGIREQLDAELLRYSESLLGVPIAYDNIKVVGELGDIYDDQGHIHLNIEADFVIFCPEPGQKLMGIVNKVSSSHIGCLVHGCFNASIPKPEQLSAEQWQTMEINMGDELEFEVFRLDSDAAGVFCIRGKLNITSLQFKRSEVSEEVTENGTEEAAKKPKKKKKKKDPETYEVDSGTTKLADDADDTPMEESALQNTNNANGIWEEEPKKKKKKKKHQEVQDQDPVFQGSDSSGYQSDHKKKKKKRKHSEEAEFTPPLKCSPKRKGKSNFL
UniProt P20226: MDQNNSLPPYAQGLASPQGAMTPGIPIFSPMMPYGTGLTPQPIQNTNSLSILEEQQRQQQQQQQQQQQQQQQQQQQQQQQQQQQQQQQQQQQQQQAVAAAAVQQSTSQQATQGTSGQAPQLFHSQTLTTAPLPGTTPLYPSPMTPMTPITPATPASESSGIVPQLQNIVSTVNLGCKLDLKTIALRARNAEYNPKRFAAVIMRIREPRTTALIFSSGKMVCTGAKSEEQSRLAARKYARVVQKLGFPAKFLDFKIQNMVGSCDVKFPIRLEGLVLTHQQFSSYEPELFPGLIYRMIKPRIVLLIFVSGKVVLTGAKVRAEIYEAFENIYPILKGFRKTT
UniProt Q9NYV6: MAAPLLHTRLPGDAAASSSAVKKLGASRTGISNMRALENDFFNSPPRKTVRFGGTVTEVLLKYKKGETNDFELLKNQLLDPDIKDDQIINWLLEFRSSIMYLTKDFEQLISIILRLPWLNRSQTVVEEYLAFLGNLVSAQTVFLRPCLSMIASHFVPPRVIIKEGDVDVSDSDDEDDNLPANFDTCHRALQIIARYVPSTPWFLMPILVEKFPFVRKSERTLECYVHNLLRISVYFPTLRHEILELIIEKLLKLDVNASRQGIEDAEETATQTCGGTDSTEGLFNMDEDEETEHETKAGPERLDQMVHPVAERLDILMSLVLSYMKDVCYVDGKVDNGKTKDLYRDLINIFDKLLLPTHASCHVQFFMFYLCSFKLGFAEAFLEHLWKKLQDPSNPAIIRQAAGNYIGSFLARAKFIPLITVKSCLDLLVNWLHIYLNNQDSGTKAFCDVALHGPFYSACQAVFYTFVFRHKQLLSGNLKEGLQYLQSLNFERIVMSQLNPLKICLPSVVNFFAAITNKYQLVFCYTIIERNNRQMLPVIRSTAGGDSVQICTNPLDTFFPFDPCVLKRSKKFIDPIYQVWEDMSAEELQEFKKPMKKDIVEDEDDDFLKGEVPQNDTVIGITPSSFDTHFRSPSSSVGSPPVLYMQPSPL
UniProt P17480: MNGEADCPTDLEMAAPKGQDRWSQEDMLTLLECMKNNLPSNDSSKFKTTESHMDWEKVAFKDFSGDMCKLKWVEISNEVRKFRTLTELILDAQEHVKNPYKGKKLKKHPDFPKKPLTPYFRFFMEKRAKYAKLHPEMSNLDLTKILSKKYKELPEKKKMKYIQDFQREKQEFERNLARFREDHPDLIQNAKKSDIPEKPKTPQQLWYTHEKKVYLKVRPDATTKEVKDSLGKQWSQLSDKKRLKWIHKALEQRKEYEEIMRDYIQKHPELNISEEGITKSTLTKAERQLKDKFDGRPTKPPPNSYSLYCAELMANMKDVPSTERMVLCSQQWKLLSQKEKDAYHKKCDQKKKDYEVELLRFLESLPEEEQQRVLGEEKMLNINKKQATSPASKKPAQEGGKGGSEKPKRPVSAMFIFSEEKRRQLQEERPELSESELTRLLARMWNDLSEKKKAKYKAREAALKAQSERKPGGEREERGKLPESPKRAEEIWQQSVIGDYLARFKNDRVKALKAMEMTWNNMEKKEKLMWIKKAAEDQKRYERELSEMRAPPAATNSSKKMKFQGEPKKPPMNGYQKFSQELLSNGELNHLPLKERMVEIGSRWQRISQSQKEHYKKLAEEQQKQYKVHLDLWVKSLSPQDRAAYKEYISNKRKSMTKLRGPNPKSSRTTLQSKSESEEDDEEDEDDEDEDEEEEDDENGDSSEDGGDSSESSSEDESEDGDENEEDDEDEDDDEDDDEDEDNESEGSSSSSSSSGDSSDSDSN

Test in all cases: co-IP
In experiment [1] the target is T1, TFIIB-related factor 1 (human (endogenous in HeLa)) (UniProt Q92994).
T1 sequence: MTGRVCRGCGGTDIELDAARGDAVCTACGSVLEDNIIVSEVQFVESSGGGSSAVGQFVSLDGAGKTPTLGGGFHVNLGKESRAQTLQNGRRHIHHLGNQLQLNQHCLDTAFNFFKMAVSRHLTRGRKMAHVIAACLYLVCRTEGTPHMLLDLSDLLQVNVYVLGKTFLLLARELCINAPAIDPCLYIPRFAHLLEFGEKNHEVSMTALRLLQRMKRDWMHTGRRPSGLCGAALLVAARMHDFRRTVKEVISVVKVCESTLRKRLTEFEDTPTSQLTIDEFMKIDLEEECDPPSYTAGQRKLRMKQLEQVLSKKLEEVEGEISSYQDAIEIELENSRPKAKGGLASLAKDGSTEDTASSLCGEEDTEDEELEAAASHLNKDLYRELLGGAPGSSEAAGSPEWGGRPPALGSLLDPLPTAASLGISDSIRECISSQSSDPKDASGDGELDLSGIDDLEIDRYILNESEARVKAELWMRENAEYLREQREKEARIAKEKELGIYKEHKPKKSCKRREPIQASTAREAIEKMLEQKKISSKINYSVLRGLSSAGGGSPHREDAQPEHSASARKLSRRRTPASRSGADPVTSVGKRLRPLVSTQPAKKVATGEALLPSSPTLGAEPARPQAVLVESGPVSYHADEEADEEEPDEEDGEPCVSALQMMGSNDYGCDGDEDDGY

Experiment [2] has as its target T1, TFIIB-related factor 1 (human (endogenous in HeLa)). The source holds these as a separate data set.
The target in experiment [3] is DNA-directed RNA polymerase I subunit F (human (endogenous in HeLa)) (UniProt Q3B726).
The target in experiment [4] is T2, TATA box binding protein associated factor, RNA polymerase I subunit A (human (endogenous in HeLa)) (UniProt Q15573).
T2 sequence: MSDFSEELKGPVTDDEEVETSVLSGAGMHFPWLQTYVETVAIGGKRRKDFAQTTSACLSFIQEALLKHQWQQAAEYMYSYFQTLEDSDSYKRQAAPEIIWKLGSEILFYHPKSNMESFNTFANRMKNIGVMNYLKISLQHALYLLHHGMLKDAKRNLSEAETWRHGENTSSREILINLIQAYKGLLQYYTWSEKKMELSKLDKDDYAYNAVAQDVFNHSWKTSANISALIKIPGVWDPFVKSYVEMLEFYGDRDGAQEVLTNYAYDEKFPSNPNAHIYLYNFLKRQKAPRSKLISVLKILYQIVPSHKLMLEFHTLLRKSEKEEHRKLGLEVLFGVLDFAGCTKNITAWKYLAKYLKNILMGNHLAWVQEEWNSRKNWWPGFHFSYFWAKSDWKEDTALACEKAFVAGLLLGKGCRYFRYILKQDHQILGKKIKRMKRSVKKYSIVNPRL

Experiment [5] has as its target T3, TATA box binding protein associated factor, RNA polymerase I subunit B (human (endogenous in HeLa)) (UniProt Q53T94).
T3 sequence: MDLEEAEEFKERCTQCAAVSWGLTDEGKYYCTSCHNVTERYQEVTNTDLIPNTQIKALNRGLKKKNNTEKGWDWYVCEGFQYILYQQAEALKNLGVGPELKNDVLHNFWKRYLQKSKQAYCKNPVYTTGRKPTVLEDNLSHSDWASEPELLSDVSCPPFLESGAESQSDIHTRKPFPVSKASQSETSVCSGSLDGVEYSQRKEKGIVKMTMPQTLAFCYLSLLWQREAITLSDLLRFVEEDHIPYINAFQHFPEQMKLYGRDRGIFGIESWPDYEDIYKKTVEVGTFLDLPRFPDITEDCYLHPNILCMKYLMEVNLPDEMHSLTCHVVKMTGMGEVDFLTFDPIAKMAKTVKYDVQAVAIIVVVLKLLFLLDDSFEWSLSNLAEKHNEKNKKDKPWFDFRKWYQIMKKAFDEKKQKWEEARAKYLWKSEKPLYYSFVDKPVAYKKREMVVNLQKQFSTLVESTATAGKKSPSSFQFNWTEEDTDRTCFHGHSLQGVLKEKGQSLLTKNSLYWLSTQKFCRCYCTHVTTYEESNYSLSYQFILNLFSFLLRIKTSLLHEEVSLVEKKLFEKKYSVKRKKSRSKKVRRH

The target of experiment [6] is TATA-binding protein (human (endogenous in HeLa)) (UniProt P20226).
In experiment [7] the target is T4, TFIIIC subunit GTF3C2 (human (endogenous in HeLa)) (UniProt Q8WUA4).
T4 sequence: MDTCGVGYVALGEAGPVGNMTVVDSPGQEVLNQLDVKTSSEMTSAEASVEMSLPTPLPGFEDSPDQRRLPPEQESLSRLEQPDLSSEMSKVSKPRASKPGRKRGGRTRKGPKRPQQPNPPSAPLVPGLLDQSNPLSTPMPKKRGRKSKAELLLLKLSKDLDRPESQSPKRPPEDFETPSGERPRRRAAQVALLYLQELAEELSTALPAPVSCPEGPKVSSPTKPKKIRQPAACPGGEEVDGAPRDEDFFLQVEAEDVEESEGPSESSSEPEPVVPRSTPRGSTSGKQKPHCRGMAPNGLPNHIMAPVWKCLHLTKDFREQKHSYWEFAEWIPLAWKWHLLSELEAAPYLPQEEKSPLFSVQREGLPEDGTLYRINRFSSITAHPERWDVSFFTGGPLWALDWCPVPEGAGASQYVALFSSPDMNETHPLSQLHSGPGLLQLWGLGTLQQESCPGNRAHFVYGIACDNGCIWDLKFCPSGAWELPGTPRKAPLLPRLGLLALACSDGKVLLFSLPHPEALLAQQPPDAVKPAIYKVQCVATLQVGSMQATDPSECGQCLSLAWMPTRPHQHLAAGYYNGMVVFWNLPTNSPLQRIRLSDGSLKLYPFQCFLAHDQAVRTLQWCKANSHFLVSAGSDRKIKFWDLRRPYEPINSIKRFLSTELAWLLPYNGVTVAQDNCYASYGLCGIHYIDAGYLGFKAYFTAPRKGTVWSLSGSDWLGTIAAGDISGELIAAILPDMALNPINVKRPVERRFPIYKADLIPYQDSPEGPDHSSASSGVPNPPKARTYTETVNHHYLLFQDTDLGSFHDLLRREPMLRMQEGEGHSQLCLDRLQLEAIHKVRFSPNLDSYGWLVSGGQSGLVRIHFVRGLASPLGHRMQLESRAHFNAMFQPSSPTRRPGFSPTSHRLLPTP

The target of experiment [8] is transcription initiator factor 1A (human (endogenous in HeLa)) (UniProt Q9NYV6).
Experiment [9] has as its target upstream binding factor (human (endogenous in HeLa)) (UniProt P17480).

Read-outs that look alike come from different tables or passages of the source. Results are given in words; binding and its absence hold for the method and conditions named. In cells and extracts the contact can be indirect. Some results given as binding are weak or reduced against the parent protein; the word gives no strength.

On to “DNA-directed RNA polymerase I subunit F (from UniProt Q3B726 1-338)”, for which the binding result in experiment [1] was “binds”.
As for “TATA-binding protein (from UniProt P20226 1-339)”, the binding entry in experiment [1] was “binds”.
The same measure, in the same setting: in the case of “transcription initiator factor 1A (from UniProt Q9NYV6 1-651)” it was “binds”.

B1: TATA box binding protein associated factor, RNA polymerase I subunit B (protein, UniProt Q53T94 1-588)
chain: MDLEEAEEFKERCTQCAAVSWGLTDEGKYYCTSCHNVTERYQEVTNTDLIPNTQIKALNRGLKKKNNTEKGWDWYVCEGFQYILYQQAEALKNLGVGPELKNDVLHNFWKRYLQKSKQAYCKNPVYTTGRKPTVLEDNLSHSDWASEPELLSDVSCPPFLESGAESQSDIHTRKPFPVSKASQSETSVCSGSLDGVEYSQRKEKGIVKMTMPQTLAFCYLSLLWQREAITLSDLLRFVEEDHIPYINAFQHFPEQMKLYGRDRGIFGIESWPDYEDIYKKTVEVGTFLDLPRFPDITEDCYLHPNILCMKYLMEVNLPDEMHSLTCHVVKMTGMGEVDFLTFDPIAKMAKTVKYDVQAVAIIVVVLKLLFLLDDSFEWSLSNLAEKHNEKNKKDKPWFDFRKWYQIMKKAFDEKKQKWEEARAKYLWKSEKPLYYSFVDKPVAYKKREMVVNLQKQFSTLVESTATAGKKSPSSFQFNWTEEDTDRTCFHGHSLQGVLKEKGQSLLTKNSLYWLSTQKFCRCYCTHVTTYEESNYSLSYQFILNLFSFLLRIKTSLLHEEVSLVEKKLFEKKYSVKRKKSRSKKVRRH
Regarding B1, the binding entry in experiment [2] was “binds”.

B2: TFIIB-related factor 1 (protein, UniProt Q92994 1-677)
chain: MTGRVCRGCGGTDIELDAARGDAVCTACGSVLEDNIIVSEVQFVESSGGGSSAVGQFVSLDGAGKTPTLGGGFHVNLGKESRAQTLQNGRRHIHHLGNQLQLNQHCLDTAFNFFKMAVSRHLTRGRKMAHVIAACLYLVCRTEGTPHMLLDLSDLLQVNVYVLGKTFLLLARELCINAPAIDPCLYIPRFAHLLEFGEKNHEVSMTALRLLQRMKRDWMHTGRRPSGLCGAALLVAARMHDFRRTVKEVISVVKVCESTLRKRLTEFEDTPTSQLTIDEFMKIDLEEECDPPSYTAGQRKLRMKQLEQVLSKKLEEVEGEISSYQDAIEIELENSRPKAKGGLASLAKDGSTEDTASSLCGEEDTEDEELEAAASHLNKDLYRELLGGAPGSSEAAGSPEWGGRPPALGSLLDPLPTAASLGISDSIRECISSQSSDPKDASGDGELDLSGIDDLEIDRYILNESEARVKAELWMRENAEYLREQREKEARIAKEKELGIYKEHKPKKSCKRREPIQASTAREAIEKMLEQKKISSKINYSVLRGLSSAGGGSPHREDAQPEHSASARKLSRRRTPASRSGADPVTSVGKRLRPLVSTQPAKKVATGEALLPSSPTLGAEPARPQAVLVESGPVSYHADEEADEEEPDEEDGEPCVSALQMMGSNDYGCDGDEDDGY
As to B2, the binding result in experiment [3], in [4], in experiment [5], in experiment [6], in experiment [7] and in experiment [8] was “binds” each time. Further, the binding entry in [9] is “binds”.

B3: TATA box binding protein associated factor, RNA polymerase I subunit A (protein, UniProt Q15573 1-450)
chain: MSDFSEELKGPVTDDEEVETSVLSGAGMHFPWLQTYVETVAIGGKRRKDFAQTTSACLSFIQEALLKHQWQQAAEYMYSYFQTLEDSDSYKRQAAPEIIWKLGSEILFYHPKSNMESFNTFANRMKNIGVMNYLKISLQHALYLLHHGMLKDAKRNLSEAETWRHGENTSSREILINLIQAYKGLLQYYTWSEKKMELSKLDKDDYAYNAVAQDVFNHSWKTSANISALIKIPGVWDPFVKSYVEMLEFYGDRDGAQEVLTNYAYDEKFPSNPNAHIYLYNFLKRQKAPRSKLISVLKILYQIVPSHKLMLEFHTLLRKSEKEEHRKLGLEVLFGVLDFAGCTKNITAWKYLAKYLKNILMGNHLAWVQEEWNSRKNWWPGFHFSYFWAKSDWKEDTALACEKAFVAGLLLGKGCRYFRYILKQDHQILGKKIKRMKRSVKKYSIVNPRL
On to B3, for which the binding entry in experiment [2] is on record as “binds”.
